Laboratory results from patent US8728472.
Results are given in words; binding and its absence hold for the method and conditions named. Some entries that bind do so weakly or less than the wild type.

The chains behind the UniProt entries cited, without tags or fusion partners. Where a name states a change or a piece, a line headed by the entry shows the natural chain unless it says otherwise.
UniProt P61809: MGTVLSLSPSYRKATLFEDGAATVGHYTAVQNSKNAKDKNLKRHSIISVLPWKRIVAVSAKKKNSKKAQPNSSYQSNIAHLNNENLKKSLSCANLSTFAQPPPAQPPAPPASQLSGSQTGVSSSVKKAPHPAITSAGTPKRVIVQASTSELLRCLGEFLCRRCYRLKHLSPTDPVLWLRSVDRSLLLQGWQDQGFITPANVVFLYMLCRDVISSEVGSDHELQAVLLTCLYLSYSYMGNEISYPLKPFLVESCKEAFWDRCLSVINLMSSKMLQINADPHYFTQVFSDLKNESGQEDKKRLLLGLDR

Tests used:
[1] = molecular target: p25 expressed in HEK293T cells from a transfected eukaryotic expression plasmid (Mus musculus (Mouse)) (UniProt P61809); experiment: immunohistochemical staining of transfected HEK293T cells (FIG. 2C)
[2] = molecular target: p25 expressed in HEK293T cells from a transfected eukaryotic expression plasmid (Mus musculus (Mouse)) (UniProt P61809); experiment: immunostaining of transfected cells

binding [1]: binds
binding [2]: binds
B1: anti-p25 monoclonal antibody 1C4 (antibody, V domains shown)
VH: QIQLEESGPELRKPGETVRISCKASGYTFTTAGMQWVQKMPGTGLKWIGWINTHSGVPKYAGEFTGRFDFSLETSASTAYLQIVNLKNEDTATYFCARYGKFGEMDYWGQGTSVTVSS
VL: IVMTQSPASLAVSLGQRATISCRSSETVDSDGNSFMHWYQQKPGQSPKLLLYLASTLESGVPARFSGSGSRTDFTLTIDPVEADDAATYYCHQNNEDPTFGGGTKLEIKR
